Results as given in the supplement of paper PMC10849652.
Some of the results follow.

Amino acid sequences for entries named in this document (tags omitted). A change or cut given only in a name is not applied to a line headed by its entry.
UniProt P52657, whole entry, looked up: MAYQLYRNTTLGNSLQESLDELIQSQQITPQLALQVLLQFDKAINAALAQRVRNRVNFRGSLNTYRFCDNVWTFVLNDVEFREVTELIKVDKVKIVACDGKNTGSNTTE
UniProt P25098: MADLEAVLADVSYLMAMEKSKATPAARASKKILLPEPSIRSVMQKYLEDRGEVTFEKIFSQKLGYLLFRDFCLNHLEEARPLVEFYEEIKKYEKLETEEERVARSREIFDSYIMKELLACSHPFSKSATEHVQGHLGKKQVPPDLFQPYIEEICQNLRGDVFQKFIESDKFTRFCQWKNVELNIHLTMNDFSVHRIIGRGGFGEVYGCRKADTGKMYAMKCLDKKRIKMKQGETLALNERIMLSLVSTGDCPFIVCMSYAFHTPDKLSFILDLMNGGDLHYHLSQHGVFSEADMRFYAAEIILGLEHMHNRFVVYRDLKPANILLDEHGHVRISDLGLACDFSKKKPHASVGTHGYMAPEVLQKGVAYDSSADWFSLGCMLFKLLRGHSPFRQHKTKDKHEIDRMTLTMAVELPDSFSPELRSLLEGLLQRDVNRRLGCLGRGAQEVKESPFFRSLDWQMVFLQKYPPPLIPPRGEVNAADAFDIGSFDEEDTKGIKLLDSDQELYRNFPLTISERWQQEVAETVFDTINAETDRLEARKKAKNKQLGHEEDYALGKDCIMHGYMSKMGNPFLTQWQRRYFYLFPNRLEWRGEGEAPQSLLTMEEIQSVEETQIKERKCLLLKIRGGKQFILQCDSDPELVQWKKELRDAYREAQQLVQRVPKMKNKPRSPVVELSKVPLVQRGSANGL
UniProt Q9HAV7: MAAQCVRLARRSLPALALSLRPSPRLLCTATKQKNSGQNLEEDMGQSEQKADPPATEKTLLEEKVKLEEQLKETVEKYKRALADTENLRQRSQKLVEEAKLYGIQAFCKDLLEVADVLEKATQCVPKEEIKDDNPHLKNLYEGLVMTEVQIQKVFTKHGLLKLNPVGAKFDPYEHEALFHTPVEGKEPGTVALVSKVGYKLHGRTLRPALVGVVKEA
UniProt Q9UBQ7: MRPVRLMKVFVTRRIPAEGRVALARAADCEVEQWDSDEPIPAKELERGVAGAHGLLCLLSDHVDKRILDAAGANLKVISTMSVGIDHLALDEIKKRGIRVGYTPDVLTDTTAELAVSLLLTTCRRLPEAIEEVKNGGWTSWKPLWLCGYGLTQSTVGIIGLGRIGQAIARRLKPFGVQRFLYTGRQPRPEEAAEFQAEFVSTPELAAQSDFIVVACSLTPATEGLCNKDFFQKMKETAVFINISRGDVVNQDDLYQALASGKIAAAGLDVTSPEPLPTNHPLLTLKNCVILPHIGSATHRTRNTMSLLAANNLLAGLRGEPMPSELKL
UniProt P69892: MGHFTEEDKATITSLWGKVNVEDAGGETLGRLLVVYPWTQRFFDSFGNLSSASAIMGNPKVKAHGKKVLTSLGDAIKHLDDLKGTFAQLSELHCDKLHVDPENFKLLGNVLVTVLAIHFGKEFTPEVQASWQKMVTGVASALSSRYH
UniProt P13984, whole entry, looked up: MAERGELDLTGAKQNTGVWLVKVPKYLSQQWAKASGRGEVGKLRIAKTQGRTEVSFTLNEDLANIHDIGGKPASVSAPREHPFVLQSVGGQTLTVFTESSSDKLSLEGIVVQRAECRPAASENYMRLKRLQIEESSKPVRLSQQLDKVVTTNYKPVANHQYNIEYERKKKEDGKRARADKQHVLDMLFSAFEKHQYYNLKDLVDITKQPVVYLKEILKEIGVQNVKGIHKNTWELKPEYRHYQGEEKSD
UniProt P48637: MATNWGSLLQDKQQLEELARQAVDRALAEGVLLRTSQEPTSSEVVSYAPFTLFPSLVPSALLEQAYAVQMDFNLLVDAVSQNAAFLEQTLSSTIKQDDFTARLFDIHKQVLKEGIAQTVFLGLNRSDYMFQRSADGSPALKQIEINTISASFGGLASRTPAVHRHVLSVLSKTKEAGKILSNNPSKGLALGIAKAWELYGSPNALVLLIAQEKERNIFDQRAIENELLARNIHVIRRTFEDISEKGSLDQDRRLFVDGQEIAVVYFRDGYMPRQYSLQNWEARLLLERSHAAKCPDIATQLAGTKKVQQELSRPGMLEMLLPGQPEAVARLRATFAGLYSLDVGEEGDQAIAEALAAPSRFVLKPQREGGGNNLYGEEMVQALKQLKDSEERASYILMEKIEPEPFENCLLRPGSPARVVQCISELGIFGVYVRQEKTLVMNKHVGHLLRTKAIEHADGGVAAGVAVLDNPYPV
UniProt P29083: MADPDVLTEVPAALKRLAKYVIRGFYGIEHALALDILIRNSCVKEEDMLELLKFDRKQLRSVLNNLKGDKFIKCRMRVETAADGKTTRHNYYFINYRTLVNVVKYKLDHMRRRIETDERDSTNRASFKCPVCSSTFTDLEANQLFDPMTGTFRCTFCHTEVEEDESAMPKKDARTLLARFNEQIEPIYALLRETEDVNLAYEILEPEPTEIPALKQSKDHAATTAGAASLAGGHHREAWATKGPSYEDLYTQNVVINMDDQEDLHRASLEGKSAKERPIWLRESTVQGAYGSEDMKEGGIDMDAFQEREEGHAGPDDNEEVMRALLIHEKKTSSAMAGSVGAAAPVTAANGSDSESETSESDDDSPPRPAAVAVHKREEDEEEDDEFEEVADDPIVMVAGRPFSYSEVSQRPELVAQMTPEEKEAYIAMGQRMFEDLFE
UniProt O75791: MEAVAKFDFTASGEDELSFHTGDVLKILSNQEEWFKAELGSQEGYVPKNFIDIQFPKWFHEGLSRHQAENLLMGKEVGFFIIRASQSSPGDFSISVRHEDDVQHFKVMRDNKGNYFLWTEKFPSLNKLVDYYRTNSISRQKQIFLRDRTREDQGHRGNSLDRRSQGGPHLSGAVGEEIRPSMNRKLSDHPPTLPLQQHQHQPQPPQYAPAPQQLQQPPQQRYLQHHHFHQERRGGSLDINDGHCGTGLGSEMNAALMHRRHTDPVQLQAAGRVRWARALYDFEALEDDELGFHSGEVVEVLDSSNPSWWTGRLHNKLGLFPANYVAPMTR
UniProt P02042: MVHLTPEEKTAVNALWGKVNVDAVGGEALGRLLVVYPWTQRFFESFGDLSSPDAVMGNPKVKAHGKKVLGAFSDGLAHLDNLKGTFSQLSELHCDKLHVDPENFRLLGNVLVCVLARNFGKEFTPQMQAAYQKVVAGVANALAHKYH
UniProt P15170, whole entry, looked up: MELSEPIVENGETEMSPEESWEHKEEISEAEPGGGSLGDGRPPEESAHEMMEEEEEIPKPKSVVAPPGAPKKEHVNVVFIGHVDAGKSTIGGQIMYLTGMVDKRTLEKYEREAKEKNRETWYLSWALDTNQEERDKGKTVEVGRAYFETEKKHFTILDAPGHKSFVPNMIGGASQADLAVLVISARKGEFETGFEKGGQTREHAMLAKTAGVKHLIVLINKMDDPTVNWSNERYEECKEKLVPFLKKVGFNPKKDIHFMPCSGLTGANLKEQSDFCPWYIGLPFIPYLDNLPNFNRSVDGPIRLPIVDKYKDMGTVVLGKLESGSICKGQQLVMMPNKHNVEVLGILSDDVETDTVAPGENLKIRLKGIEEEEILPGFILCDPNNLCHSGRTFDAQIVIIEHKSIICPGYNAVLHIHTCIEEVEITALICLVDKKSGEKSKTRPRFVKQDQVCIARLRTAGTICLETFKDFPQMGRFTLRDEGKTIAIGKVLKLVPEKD
UniProt Q12789: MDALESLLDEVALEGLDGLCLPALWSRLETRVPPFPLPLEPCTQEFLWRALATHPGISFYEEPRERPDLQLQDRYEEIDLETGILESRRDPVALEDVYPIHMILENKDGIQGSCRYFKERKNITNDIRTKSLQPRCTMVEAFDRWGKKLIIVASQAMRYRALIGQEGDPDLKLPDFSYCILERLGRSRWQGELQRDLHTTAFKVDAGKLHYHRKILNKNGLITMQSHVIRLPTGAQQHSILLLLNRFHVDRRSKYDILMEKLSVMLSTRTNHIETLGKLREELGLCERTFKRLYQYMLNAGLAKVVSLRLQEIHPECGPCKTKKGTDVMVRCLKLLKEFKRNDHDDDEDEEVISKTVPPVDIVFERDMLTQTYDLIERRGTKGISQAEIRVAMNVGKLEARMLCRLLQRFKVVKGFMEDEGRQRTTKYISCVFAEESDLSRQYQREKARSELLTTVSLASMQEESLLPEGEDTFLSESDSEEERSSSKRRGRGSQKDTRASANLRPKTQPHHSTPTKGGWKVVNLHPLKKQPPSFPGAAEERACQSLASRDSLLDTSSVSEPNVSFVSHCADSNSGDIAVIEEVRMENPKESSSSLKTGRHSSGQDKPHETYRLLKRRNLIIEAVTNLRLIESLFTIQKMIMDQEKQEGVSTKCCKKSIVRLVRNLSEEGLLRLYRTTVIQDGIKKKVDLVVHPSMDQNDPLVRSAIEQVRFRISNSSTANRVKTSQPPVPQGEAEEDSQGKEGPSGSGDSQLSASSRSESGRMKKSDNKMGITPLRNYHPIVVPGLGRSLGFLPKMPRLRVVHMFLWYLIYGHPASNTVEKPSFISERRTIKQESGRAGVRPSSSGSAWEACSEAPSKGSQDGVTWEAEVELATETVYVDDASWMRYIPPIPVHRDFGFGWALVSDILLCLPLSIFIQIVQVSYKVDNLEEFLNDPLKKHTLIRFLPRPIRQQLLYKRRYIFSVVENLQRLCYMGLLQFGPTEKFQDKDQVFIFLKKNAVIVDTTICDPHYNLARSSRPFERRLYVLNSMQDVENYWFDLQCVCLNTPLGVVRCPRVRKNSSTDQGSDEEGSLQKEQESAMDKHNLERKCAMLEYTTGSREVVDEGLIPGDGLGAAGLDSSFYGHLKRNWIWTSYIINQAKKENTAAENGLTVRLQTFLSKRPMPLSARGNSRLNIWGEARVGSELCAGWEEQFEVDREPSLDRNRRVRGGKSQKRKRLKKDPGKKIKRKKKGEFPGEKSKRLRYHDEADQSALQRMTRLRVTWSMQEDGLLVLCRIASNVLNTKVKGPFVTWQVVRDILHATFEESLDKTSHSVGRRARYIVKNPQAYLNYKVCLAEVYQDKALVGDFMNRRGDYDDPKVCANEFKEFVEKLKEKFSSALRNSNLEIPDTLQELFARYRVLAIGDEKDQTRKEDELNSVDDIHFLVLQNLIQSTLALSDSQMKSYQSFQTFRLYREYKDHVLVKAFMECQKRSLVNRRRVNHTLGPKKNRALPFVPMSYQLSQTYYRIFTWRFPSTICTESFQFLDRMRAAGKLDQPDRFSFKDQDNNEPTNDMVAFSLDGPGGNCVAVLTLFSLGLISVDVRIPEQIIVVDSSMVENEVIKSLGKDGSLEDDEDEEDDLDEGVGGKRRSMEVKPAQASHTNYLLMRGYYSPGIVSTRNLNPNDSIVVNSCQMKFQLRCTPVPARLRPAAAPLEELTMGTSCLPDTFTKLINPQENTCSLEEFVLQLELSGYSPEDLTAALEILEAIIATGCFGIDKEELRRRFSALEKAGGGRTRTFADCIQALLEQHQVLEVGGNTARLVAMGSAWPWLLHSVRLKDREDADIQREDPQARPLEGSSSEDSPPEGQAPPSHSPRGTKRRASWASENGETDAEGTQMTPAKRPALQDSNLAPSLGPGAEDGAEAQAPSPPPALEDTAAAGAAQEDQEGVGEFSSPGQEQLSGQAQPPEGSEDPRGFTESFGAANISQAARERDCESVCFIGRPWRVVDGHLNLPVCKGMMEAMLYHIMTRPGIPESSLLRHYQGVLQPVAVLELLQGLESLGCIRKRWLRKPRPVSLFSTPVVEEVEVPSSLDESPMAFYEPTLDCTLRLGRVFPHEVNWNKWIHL
UniProt O95479: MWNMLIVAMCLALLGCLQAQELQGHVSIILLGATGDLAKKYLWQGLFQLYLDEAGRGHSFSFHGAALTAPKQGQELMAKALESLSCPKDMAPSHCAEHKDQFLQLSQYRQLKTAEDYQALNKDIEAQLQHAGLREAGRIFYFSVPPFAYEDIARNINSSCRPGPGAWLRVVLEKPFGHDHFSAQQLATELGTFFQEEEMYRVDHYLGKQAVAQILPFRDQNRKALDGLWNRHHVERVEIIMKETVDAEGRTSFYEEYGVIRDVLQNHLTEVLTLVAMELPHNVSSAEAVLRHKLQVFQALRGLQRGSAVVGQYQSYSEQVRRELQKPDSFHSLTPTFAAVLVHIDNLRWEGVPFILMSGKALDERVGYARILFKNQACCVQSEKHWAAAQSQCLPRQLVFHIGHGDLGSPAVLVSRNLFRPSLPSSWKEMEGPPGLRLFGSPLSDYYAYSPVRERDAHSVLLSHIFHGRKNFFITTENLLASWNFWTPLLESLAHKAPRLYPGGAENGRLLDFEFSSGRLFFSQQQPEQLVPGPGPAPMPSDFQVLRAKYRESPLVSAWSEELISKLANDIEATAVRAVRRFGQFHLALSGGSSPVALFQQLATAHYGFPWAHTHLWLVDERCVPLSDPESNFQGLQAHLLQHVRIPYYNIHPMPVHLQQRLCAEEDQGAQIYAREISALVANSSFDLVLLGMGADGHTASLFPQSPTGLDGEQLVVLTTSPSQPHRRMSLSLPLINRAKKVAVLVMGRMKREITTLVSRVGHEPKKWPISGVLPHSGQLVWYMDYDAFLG

What was measured:
Test in all cases: log2 fold change, soluble protein after heating vs DMSO (PISA); higher = thermal stabilisation; K562 lysate, 10 uM; active = over 0.2 and 3.5 SD of the protein, either way, in both replicates (recomputed)
lapatinib = compound: CS(=O)(=O)CCNCc1ccc(-c2ccc3ncnc(Nc4ccc(OCc5cccc(F)c5)c(Cl)c4)c3c2)o1 [lapatinib]
Procedure, shortened: (§1)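 Soluble protein was defined as the supernatant remaining after 21,000xg for 90 min, following pooling of heated aliquots and adjustment to 0.5% NP-40 at 4°C. Before that, crude K562 extract at 1 mg/mL protein in PBS pH 7.4 with 1 mM MgCl2 was treated with 10 μM compound for 30 min and heated for 3 min across 48°C-58°C. Quantification used TMTpro 16plex LC-MS/MS with channel sums equalised, and values are log-two fold changes in thermal stability relative to solvent controls from duplicates.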

pictilisib = compound: CS(=O)(=O)N1CCN(Cc2cc3nc(-c4cccc5[nH]ncc45)nc(N4CCOCC4)c3s2)CC1 [pictilisib]
Procedure, shortened: as §1

crizotinib = compound: C[C@@H](Oc1cc(-c2cnn(C3CCNCC3)c2)cnc1N)c1c(Cl)ccc(F)c1Cl [crizotinib]
Procedure, shortened: as §1

[1] = compound: C[C@H](C1=CC=C(C=C1)C(=O)NC2=C3C=CNC3=NC=C2)N
Procedure, shortened: as §1

duvelisib = compound: C[C@H](Nc1ncnc2nc[nH]c12)c1cc2cccc(Cl)c2c(=O)n1-c1ccccc1 [duvelisib]
Procedure, shortened: as §1

gandotinib = compound: Cc1cc(Nc2cc(CN3CCOCC3)c3nc(C)c(Cc4ccc(Cl)cc4F)n3n2)n[nH]1 [gandotinib]
Procedure, shortened: as §1

tozasertib = compound: Cc1cc(Nc2cc(N3CCN(C)CC3)nc(Sc3ccc(NC(=O)C4CC4)cc3)n2)n[nH]1 [tozasertib]
Procedure, shortened: as §1

doramapimod = compound: Cc1ccc(-n2nc(C(C)(C)C)cc2NC(=O)Nc2ccc(OCCN3CCOCC3)c3ccccc23)cc1 [doramapimod]
Procedure, shortened: as §1

bafetinib = compound: Cc1ccc(NC(=O)c2ccc(CN3CC[C@H](N(C)C)C3)c(C(F)(F)F)c2)cc1Nc1nccc(-c2cncnc2)n1 [bafetinib]
Procedure, shortened: as §1

[2] = compound: Cc1cccc(CC(=O)N2CCc3c2ccc(-c2cn(C)c4ncnc(N)c24)c3F)n1
Procedure, shortened: as §1

nilotinib = compound: Cc1cn(-c2cc(NC(=O)c3ccc(C)c(Nc4nccc(-c5cccnc5)n4)c3)cc(C(F)(F)F)c2)cn1 [nilotinib]
Procedure, shortened: as §1

[3] = compound: Cc1nc(Nc2n[nH]c3c2CN(C(=O)N[C@H](CN(C)C)c2ccccc2)C3(C)C)c2sccc2n1
Procedure, shortened: as §1

dasatinib = compound: Cc1nc(Nc2ncc(C(=O)Nc3c(C)cccc3Cl)s2)cc(N2CCN(CCO)CC2)n1 [dasatinib]
Procedure, shortened: as §1

[4] = compound: Cc1ncc(-c2ccnc(Nc3ccc(S(C)(=O)=O)cc3)n2)n1C(C)C
Procedure, shortened: as §1

[5] = compound: Cn1cc(-c2ccc3c(c2)CCN3C(=O)Cc2cccc(C(F)(F)F)c2)c2c(N)ncnc21
Procedure, shortened: as §1

quisinostat = compound: Cn1cc(CNCC2CCN(c3ncc(C(=O)NO)cn3)CC2)c2ccccc21 [quisinostat]
Procedure, shortened: as §1

tipifarnib = compound: Cn1cncc1[C@@](N)(c1ccc(Cl)cc1)c1ccc2c(c1)c(-c1cccc(Cl)c1)cc(=O)n2C [tipifarnib]
Procedure, shortened: as §1

[6] = compound: NC(=O)Nc1cc(-c2cccc(F)c2)sc1C(=O)N[C@H]1CCCNC1
Procedure, shortened: as §1

[7] = compound: NC(=O)c1cnc(N[C@@H]2CCCC[C@@H]2N)nc1Nc1cccc(-n2nccn2)c1
Procedure, shortened: as §1

[8] = compound: NC1(c2ccc(-c3nc4ccn5c(=O)[nH]nc5c4cc3-c3ccccc3)cc2)CCC1
Procedure, shortened: as §1

Measured: log2 fold change

GTF2A2 (UniProt P52657)
inactive: lapatinib -0.017 | pictilisib 0.012 | crizotinib 0.039 | [1] -0.047 | duvelisib -0.003 | gandotinib 0.045 | tozasertib -0.023 | doramapimod 0.025 | bafetinib -0.011 | [2] -0.01 | nilotinib -0.023 | [3] 0.08 | dasatinib -0.005 | [4] 0 | [5] -0.016 | quisinostat 0.022 | tipifarnib -0.003 | [6] -0.039 | [7] -0.021 | [8] -0.033

GRK2 (UniProt P25098)
active: [3] 0.393 | [6] 0.397
inactive: lapatinib -0.063 | pictilisib 0.015 | crizotinib -0.038 | [1] 0.024 | duvelisib 0.017 | gandotinib 0.077 | tozasertib -0.02 | doramapimod 0.033 | bafetinib -0.017 | [2] -0.035 | nilotinib 0.001 | dasatinib -0.058 | [4] 0.01 | [5] 0 | quisinostat 0.034 | tipifarnib -0.001 | [7] 0.043 | [8] -0.027

GRPEL1 (UniProt Q9HAV7)
inactive: lapatinib -0.031 | pictilisib 0.002 | crizotinib 0.021 | [1] -0.039 | duvelisib 0.006 | gandotinib 0.024 | tozasertib 0.001 | doramapimod -0.028 | bafetinib 0.018 | [2] 0.014 | nilotinib -0.004 | [3] 0.005 | dasatinib -0.017 | [4] 0.025 | [5] 0.016 | quisinostat 0.042 | tipifarnib 0.017 | [6] -0.039 | [7] -0.015 | [8] 0.009

GRHPR (UniProt Q9UBQ7)
inactive: lapatinib 0.001 | pictilisib -0.023 | crizotinib -0.017 | [1] 0.189 | duvelisib 0.004 | gandotinib -0.08 | tozasertib 0.001 | doramapimod -0.033 | bafetinib 0.042 | [2] -0.122 | nilotinib 0 | [3] -0.008 | dasatinib -0.044 | [4] 0.005 | [5] -0.019 | quisinostat 0.013 | tipifarnib 0.043 | [6] 0.014 | [7] 0.012 | [8] 0.007

HBG2 (UniProt P69892)
inactive: lapatinib 0.051 | pictilisib -0.048 | crizotinib 0.011 | [1] 0.067 | duvelisib 0.004 | gandotinib -0.048 | tozasertib -0.013 | doramapimod -0.014 | bafetinib -0.037 | [2] -0.06 | nilotinib 0.087 | [3] 0.013 | dasatinib 0.031 | [4] 0.044 | [5] -0.007 | quisinostat 0.042 | tipifarnib 0.062 | [6] -0.033 | [7] -0.042 | [8] -0.009

GTF2F2 (UniProt P13984)
inactive: lapatinib -0.011 | pictilisib 0.016 | crizotinib 0.002 | [1] -0.053 | duvelisib -0.021 | gandotinib 0.061 | tozasertib 0.002 | doramapimod -0.016 | bafetinib -0.003 | [2] 0.018 | nilotinib -0.014 | [3] -0.024 | dasatinib 0.053 | [4] 0.006 | [5] 0.001 | quisinostat 0.02 | tipifarnib 0.003 | [6] -0.013 | [7] -0.017 | [8] -0.015

GRWD1 (UniProt Q9BQ67)
inactive: lapatinib -0.007 | pictilisib -0.024 | crizotinib -0.026 | [1] -0.022 | duvelisib 0.022 | gandotinib -0.014 | tozasertib -0.016 | doramapimod 0.023 | bafetinib -0.048 | [2] 0.042 | nilotinib -0.018 | [3] 0.051 | dasatinib 0 | [4] -0.012 | [5] 0.052 | quisinostat -0.072 | tipifarnib 0.012 | [6] 0.016 | [7] 0.014 | [8] -0.058

Copied from the results shown (2 entries):
GRK2 (UniProt P25098)
active: [3] 0.393 | [6] 0.397
inactive: lapatinib -0.063 | pictilisib 0.015 | crizotinib -0.038 | [1] 0.024 | duvelisib 0.017 | gandotinib 0.077 | tozasertib -0.02 | doramapimod 0.033 | bafetinib -0.017 | [2] -0.035 | nilotinib 0.001 | dasatinib -0.058 | [4] 0.01 | [5] 0 | quisinostat 0.034 | tipifarnib -0.001 | [7] 0.043 | [8] -0.027

GRPEL1 (UniProt Q9HAV7)
inactive: lapatinib -0.031 | pictilisib 0.002 | crizotinib 0.021 | [1] -0.039 | duvelisib 0.006 | gandotinib 0.024 | tozasertib 0.001 | doramapimod -0.028 | bafetinib 0.018 | [2] 0.014 | nilotinib -0.004 | [3] 0.005 | dasatinib -0.017 | [4] 0.025 | [5] 0.016 | quisinostat 0.042 | tipifarnib 0.017 | [6] -0.039 | [7] -0.015 | [8] 0.009

The results go on.

GSS (UniProt P48637)
inactive: lapatinib 0.004 | pictilisib -0.013 | crizotinib 0.019 | [1] -0.015 | duvelisib -0.005 | gandotinib 0.048 | tozasertib -0.006 | doramapimod 0.004 | bafetinib 0.069 | [2] -0.041 | nilotinib 0.001 | [3] -0.003 | dasatinib 0.03 | [4] -0.033 | [5] 0.017 | quisinostat 0.031 | tipifarnib -0.011 | [6] -0.015 | [7] -0.009 | [8] 0.006

GTF2E1 (UniProt P29083)
inactive: lapatinib -0.027 | pictilisib -0.009 | crizotinib -0.038 | [1] -0.121 | duvelisib -0.015 | gandotinib 0.06 | tozasertib 0.002 | doramapimod 0.018 | bafetinib -0.089 | [2] 0.053 | nilotinib -0.03 | [3] 0.013 | dasatinib -0.003 | [4] -0.012 | [5] 0.025 | quisinostat -0.073 | tipifarnib 0 | [6] -0.001 | [7] 0.006 | [8] -0.003

GRAP2 (UniProt O75791)
inactive: lapatinib 0 | pictilisib -0.08 | crizotinib -0.006 | [1] 0.101 | duvelisib -0.083 | gandotinib -0.046 | tozasertib 0.022 | doramapimod -0.013 | bafetinib 0.008 | [2] -0.011 | nilotinib 0.015 | [3] 0.007 | dasatinib 0.032 | [4] -0.002 | [5] 0.001 | quisinostat 0.057 | tipifarnib 0.038 | [6] 0.008 | [7] -0.005 | [8] 0.011

GUSB (UniProt P08236)
inactive: lapatinib -0.097 | pictilisib -0.012 | crizotinib -0.044 | duvelisib 0.017 | gandotinib 0.228 | tozasertib 0.02 | doramapimod 0.037 | bafetinib -0.057 | [2] 0.27 | nilotinib 0.028 | [3] -0.067 | dasatinib 0.007 | [4] -0.026 | [5] -0.002 | quisinostat -0.109 | tipifarnib -0.066 | [6] -0.041 | [7] 0.001 | [8] -0.01
active: [1] -0.547

HBD (UniProt P02042)
inactive: lapatinib 0.094 | pictilisib -0.071 | crizotinib 0.01 | [1] 0.068 | duvelisib 0.003 | gandotinib -0.023 | tozasertib 0.026 | doramapimod 0.002 | bafetinib -0.08 | [2] -0.099 | nilotinib 0.064 | [3] 0.028 | dasatinib 0.039 | [4] 0.071 | [5] -0.009 | quisinostat 0.056 | tipifarnib 0.02 | [6] -0.05 | [7] -0.033 | [8] -0.032

GSPT1 isoform 3 (UniProt P15170)
inactive: lapatinib -0.002 | pictilisib 0.009 | crizotinib 0.033 | [1] -0.018 | duvelisib -0.013 | gandotinib 0.004 | tozasertib -0.01 | doramapimod -0.048 | bafetinib -0.005 | [2] -0.021 | nilotinib 0.024 | [3] -0.001 | dasatinib -0.007 | [4] 0.022 | [5] 0.005 | quisinostat 0.043 | tipifarnib 0.008 | [6] -0.012 | [7] -0.017 | [8] 0.004

GTF3C1 (UniProt Q12789)
inactive: lapatinib -0.019 | pictilisib -0.019 | crizotinib -0.097 | [1] -0.098 | duvelisib 0.02 | gandotinib 0.013 | tozasertib 0.021 | doramapimod 0.04 | bafetinib -0.089 | [2] 0.139 | nilotinib 0.012 | [3] -0.008 | dasatinib -0.021 | [4] -0.001 | [5] 0.013 | quisinostat -0.16 | tipifarnib 0.008 | [6] 0.019 | [7] -0.001 | [8] -0.008

HEATR1 (UniProt Q9H583)
inactive: lapatinib -0.012 | pictilisib 0.012 | crizotinib -0.064 | [1] -0.027 | duvelisib 0.059 | gandotinib -0.094 | tozasertib -0.001 | doramapimod 0.015 | bafetinib -0.028 | [2] 0.125 | nilotinib 0.021 | [3] -0.006 | dasatinib -0.05 | [4] -0.041 | [5] 0.023 | quisinostat -0.038 | tipifarnib -0.015 | [6] 0.067 | [7] 0.005 | [8] 0.036

H6PD (UniProt O95479)
inactive: lapatinib -0.049 | pictilisib -0.105 | crizotinib 0.069 | [1] -0.03 | duvelisib 0.065 | gandotinib 0.055 | tozasertib -0.006 | doramapimod -0.138 | bafetinib -0.129 | [2] 0.067 | nilotinib 0.246 | [3] 0.188 | dasatinib -0.087 | [4] 0.031 | [5] 0.03 | quisinostat 0.011 | tipifarnib 0.089 | [6] 0.08 | [7] 0.014 | [8] -0.045
